Laboratory results: paper PMC10713652
These are yes or no findings as the source states them, for the method shown. Binding seen in cells or lysates may run through a third protein. Some entries that bind do so weakly or less than the wild type.

Amino acid sequences for entries named in this document (tags omitted). Residues count along the entry.
UniProt Q8NI17, 20-732: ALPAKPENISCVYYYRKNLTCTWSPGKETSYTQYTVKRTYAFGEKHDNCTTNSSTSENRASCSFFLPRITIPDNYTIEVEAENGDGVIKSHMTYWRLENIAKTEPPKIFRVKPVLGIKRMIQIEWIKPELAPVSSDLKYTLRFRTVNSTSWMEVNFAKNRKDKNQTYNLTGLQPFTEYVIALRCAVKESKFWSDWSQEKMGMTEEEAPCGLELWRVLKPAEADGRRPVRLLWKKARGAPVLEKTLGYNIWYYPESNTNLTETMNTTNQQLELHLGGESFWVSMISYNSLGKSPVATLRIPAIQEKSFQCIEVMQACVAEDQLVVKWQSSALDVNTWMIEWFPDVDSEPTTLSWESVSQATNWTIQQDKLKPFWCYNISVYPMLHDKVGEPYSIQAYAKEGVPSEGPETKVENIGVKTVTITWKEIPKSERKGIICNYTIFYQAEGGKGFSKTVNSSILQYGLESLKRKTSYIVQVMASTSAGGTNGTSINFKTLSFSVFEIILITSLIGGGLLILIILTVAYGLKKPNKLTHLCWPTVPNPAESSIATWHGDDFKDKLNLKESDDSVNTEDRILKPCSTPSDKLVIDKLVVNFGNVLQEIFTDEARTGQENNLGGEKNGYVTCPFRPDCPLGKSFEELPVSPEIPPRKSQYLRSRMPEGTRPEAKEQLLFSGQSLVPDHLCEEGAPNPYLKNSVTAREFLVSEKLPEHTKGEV
UniProt P20309, whole entry: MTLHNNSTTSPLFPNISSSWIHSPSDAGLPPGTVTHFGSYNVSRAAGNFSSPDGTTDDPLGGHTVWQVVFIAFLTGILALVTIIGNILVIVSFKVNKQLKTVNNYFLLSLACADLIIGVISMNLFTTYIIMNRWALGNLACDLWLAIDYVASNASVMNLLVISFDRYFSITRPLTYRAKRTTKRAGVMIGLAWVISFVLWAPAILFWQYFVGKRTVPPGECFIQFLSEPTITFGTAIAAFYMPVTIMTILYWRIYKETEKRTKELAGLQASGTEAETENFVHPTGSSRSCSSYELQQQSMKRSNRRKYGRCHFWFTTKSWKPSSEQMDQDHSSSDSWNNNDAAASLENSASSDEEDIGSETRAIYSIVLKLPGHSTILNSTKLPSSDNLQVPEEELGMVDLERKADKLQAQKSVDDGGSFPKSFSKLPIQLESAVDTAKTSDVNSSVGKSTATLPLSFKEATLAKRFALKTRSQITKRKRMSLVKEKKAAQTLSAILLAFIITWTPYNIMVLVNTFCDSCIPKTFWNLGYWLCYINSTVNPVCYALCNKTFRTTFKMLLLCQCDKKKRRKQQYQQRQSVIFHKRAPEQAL

Target: C-terminal FLAG-tagged IL-31RA (interleukin 31 receptor alpha), overexpressed from an Origene plasmid (UniProt Q8NI17)
Assay: proximity ligation; in situ Duolink PLA in HEK293T cells transfected for 48 h with plasmids for IL-31RA and CHRM3 or empty control plasmids; methanol-fixed; primary antibodies against IL-31RA and CHRM3; plasma membrane counterstained with cholera toxin-Alexa Fluor 488

In the case of “CHRM3 (muscarinic acetylcholine receptor 3), overexpressed from an Origene plasmid (from UniProt P20309 1-590)”, the binding is reported as “binds”.
